According to PubChem BioAssay AID504648 (National Center for Advancing Translational Sciences (NCATS), 2011):
The campaign covered roughly 390,000 compounds. About 610 (0.16%) were called active. The shares of active, inactive and inconclusive entries below differ from those in the screen. Calls follow the shape of the dose curve; as a rule, active = well fitted inhibition curve with a large enough effect; inconclusive = small, poorly fitted or top-dose-only effect, or effect the other way, or another doubt; inactive = no such curve, though single readings can be large or run the other way. Where the call is inconclusive, the potency comes from a doubtful curve fit.

test: Nrf2 qHTS screen for inhibitors: counterscreen for cytotoxicity; conditions: A549 ARE-Fluc cells, CellTiter-Fluor viability, 18-24 h; activity change, negative = cytotoxicity: at 46 µM (top of the series)
Summary of the method: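 A549 ARE_Fluc cells in 5% FBS OPTI-MEM were exposed to compounds in concentration-response for 18-24 h at 37 deg C. Viability was read by CellTiter-Fluor fluorescence (Ex 405/Em 525) after 30 min, before the luciferase read.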
% is scaled to controls: 0 for no effect and ±100 for the full control effect; potency is read from the fitted curve at half-maximal effect.

**Q.** Which “activity change, negative = cytotoxicity” value does the source give for `CCNC(=O)Cn1c(-c2cccs2)cc2ccccc21` here?
**A.** inactive: -25.3%

**Q.** Which Potency does the source give for `CCOC(=O)/C(C(N)=NCCO)=C(/O)c1ccccc1` here?
**A.** inconclusive: 18.4 µM [activator, partial curve, poor fit]

**Q.** Which Potency does the source give for `Cc1cccc(C2c3[nH]c4ccccc4c3CCN2Cc2cccn2-c2ncccn2)c1` (stereo not given) here?
**A.** inconclusive: 29.1 µM [falling, single point]

**Q.** Which “activity change, negative = cytotoxicity” value does the source give for `CC(=O)c1c(C)[nH]c(C(=O)OCC(=O)Nc2ccc3c(c2)OCCO3)c1C` here?
**A.** inactive: -0.61%

**Q.** For `Cc1ccc(C)c(Cn2c(=O)n(CCCCC(=O)NCc3ccccc3Cl)c(=O)c3ccccc32)c1`, which “activity change, negative = cytotoxicity” value is on record?
**A.** inactive: -6.7%

**Q.** For `Cc1c(N=Cc2c(O)n(Cc3ccco3)c(=O)c3ccccc23)c(=O)n(-c2ccccc2)n1C`, which Potency is on record?
**A.** inconclusive: 23.1 µM [falling, partial curve, poor fit]

**Q.** For `Cc1ccc(C(C)C)c(OCCCN2C(=O)NC(C)(C)C2=O)c1`, which Potency is on record?
**A.** inconclusive: 29.1 µM [falling, single point]

**Q.** With `O=C(Nc1ccc(N2CCN(C(=O)c3ccco3)CC2)c(Cl)c1)c1cc2ccccc2o1` as the molecule, how does the Potency read?
**A.** inconclusive: 16.4 µM [falling, partial curve]

**Q.** Which “activity change, negative = cytotoxicity” value does the source give for `O=C(CN1C(=O)C2CCCCN2c2ccc(C(=O)N3CCCC3)cc21)NCc1cccc(Cl)c1` (stereo not given) here?
**A.** inactive: -1.28%

**Q.** Which Potency does the source give for `COc1cc(NC2CCCCC2O)c2nc(-c3ccc(Cl)cc3)ccc2c1` (stereo not given) here?
**A.** active: 9.2 µM

**Q.** For `Cc1ccc(C(C)C)c2c1C(c1ccc3c(c1)OCO3)CC(=O)O2` (stereo not given), which “activity change, negative = cytotoxicity” value is on record?
**A.** inactive: 13.3%

**Q.** With `CCC(=O)Nc1nonc1-c1nc2ccccc2n1Cc1cccc2ccccc12` as the molecule, how does the Potency read?
**A.** inconclusive: 1.16 µM [falling, partial curve, poor fit]

**Q.** With `COc1ccc2nc(C)cc(Nc3ccc(C)cc3)c2c1` as the molecule, how does the Potency read?
**A.** inconclusive: 9.2 µM [falling, partial curve]

**Q.** Which Potency does the source give for `O=C1N[C@@H](c2ccccc2)COC(=O)[C@H](Cc2ccc(F)cc2)CC/C=C/C[C@H]1CC(=O)N(CCO)Cc1ccccc1` here?
**A.** inconclusive: 18.4 µM [falling, partial curve, poor fit]

**Q.** With `CCCCNC(C(=O)Nc1ccc([N+](=O)[O-])cc1Br)c1ccccc1` (stereo not given) as the molecule, how does the “activity change, negative = cytotoxicity” value read?
**A.** inactive: -3.85%

**Q.** Which “activity change, negative = cytotoxicity” value does the source give for `Cc1c(Cl)cccc1NC(=O)CSc1nc(=O)n(Cc2ccccn2)c2c1CCC2` here?
**A.** inactive: -0.114%

**Q.** For `CCCN(CCC)C(=O)c1cc([N+](=O)[O-])cc2c1-c1ccc([N+](=O)[O-])cc1C2=C(C#N)C#N`, which Potency is on record?
**A.** inconclusive: 7.31 µM [falling, partial curve, poor fit]

**Q.** For `Cc1ccc(CNS(=O)(=O)c2ccc3c(c2)n(C)c(=O)n3C)cc1`, which “activity change, negative = cytotoxicity” value is on record?
**A.** inactive: -1.95%

**Q.** For `Cn1ncc2c(N3CCN(c4ccc(Cl)c(Cl)c4)CC3)ncnc21`, which “activity change, negative = cytotoxicity” value is on record?
**A.** inactive: 1.13%

**Q.** With `Cc1ccc2c(c1)N(CC(=O)N1CCCC(C)C1)C(=O)CO2` (stereo not given) as the molecule, how does the Potency read?
**A.** inconclusive: 29.1 µM [falling, partial curve, poor fit]

**Q.** Which “activity change, negative = cytotoxicity” value does the source give for `Cc1ccc(NC(=O)CN(C)C(=O)C(c2ccccc2)c2ccccc2)cc1` here?
**A.** inactive: -2.6%

**Q.** For `O=C(Nc1c(C(=O)Nc2ccc(F)cc2)oc2ccccc12)c1ccccc1F`, which “activity change, negative = cytotoxicity” value is on record?
**A.** inactive: -1.98%

**Q.** With `COc1ccc(/C(N)=N/OC(=O)Cc2ccc(C)cc2)cc1OC` as the molecule, how does the Potency read?
**A.** inconclusive: 29.1 µM [activator, single point]

**Q.** Which “activity change, negative = cytotoxicity” value does the source give for `CC(C)(C)C(=O)Nc1ccc(C(=O)Nc2cccc(Oc3ccc(C(=O)O)c(C(=O)O)c3)c2)cc1` here?
**A.** inactive: 1.81%

**Q.** For `Cc1ccc(-n2c(SCC(=O)Nc3cccc(S(=O)(=O)NC4=NCCCCC4)c3)nc3ccccc3c2=O)cc1C`, which Potency is on record?
**A.** inconclusive: 2.59 µM [falling, partial curve, poor fit]

**Q.** With `Cc1ccc2nc(N/N=C/c3ccccc3C#N)nc(-c3ccccc3)c2c1` as the molecule, how does the “activity change, negative = cytotoxicity” value read?
**A.** inactive: -10.7%

**Q.** For `CC(C)c1ccc(S(=O)(=O)/N=C2/C=C(Sc3ncn[nH]3)C(=O)c3ccccc32)cc1`, which Potency is on record?
**A.** inconclusive: 29.1 µM [falling, single point]

**Q.** With `CCn1c(SCCOc2ccccc2F)nc2ccccc21` as the molecule, how does the Potency read?
**A.** inconclusive: 18.4 µM [activator, partial curve, poor fit]

**Q.** Which Potency does the source give for `O=C(Nc1ccc2nc(SCC(=O)N3CCc4ccccc43)sc2c1)c1ccc(F)cc1` here?
**A.** inconclusive: 23.1 µM [falling, single point]

**Q.** Which Potency does the source give for `COC(=O)c1sc(NC(=O)c2ccc(OC)cc2OC)nc1C` here?
**A.** inconclusive: 20.6 µM [activator, partial curve, poor fit]

**Q.** Which Potency does the source give for `COc1ccc(NC(=O)Cn2nnc(-c3ccccc3NC(=O)c3ccco3)n2)cc1` here?
**A.** inconclusive: 9.2 µM [falling, partial curve]

**Q.** With `Cc1cc(C)n(CC2CC(=O)N(c3ccccc3)C2=O)n1` (stereo not given) as the molecule, how does the “activity change, negative = cytotoxicity” value read?
**A.** inactive: 1.04%

**Q.** Which Potency does the source give for `COc1ccccc1N(O)C1CC(=O)N(c2ccc(F)cc2)C1=O` (stereo not given) here?
**A.** inconclusive: 23.1 µM [falling, single point]

**Q.** For `Cn1cc(/C=C2\SC(=O)NC2=S)c2ccccc21`, which Potency is on record?
**A.** inconclusive: 18.4 µM [falling, single point]

**Q.** For `COc1ccc(OC)c(CNC(=O)c2ccc(-c3nc(CSc4ccccc4)c(C)o3)cc2)c1`, which Potency is on record?
**A.** inconclusive: 0.651 µM [activator, full curve, poor fit]

**Q.** Which Potency does the source give for `CCCC(=O)C1=C(O)C(c2cccc(Oc3ccccc3)c2)CCC1=O` (stereo not given) here?
**A.** inconclusive: 3.66 µM [falling, partial curve, poor fit]

**Q.** With `Clc1ccccc1-c1ccc2ncnc(NCc3cccs3)c2c1` as the molecule, how does the Potency read?
**A.** inconclusive: 29.1 µM [falling, single point]

**Q.** With `COc1ccc(S(=O)(=O)N(C)C)cc1NC(=O)C1CCN(c2ncnc3sc(C)c(C)c23)CC1` as the molecule, how does the Potency read?
**A.** inconclusive: 14.6 µM [falling, single point]

**Q.** Which Potency does the source give for `O=C(c1cc(COc2ccc(F)cc2Cl)on1)N1CCCC(c2ccccc2)C1` (stereo not given) here?
**A.** inconclusive: 16.4 µM [falling, partial curve, poor fit]

**Q.** With `CCN1CCN(C2=C(NS(=O)(=O)c3ccc(C)cc3)C(=O)c3ccccc3C2=O)CC1` as the molecule, how does the Potency read?
**A.** inconclusive: 18.4 µM [falling, single point]

**Q.** Which Potency does the source give for `CC(=O)c1c(C)oc2ccc(N(C(C)=O)S(=O)(=O)c3ccc(Cl)c([N+](=O)[O-])c3)cc12` here?
**A.** inconclusive: 18.4 µM [falling, single point]

**Q.** With `Cc1ccc(Nc2nc(N)c3ccccc3n2)cc1Cl` as the molecule, how does the Potency read?
**A.** inconclusive: 29.1 µM [activator, partial curve, poor fit]

**Q.** Which Potency does the source give for `COc1ccc(NC(=O)c2ccccc2NC(=O)CSc2ccc(C)cc2)cc1` here?
**A.** inconclusive: 25.9 µM [falling, single point]

**Q.** Which Potency does the source give for `O=C1C=CC2(C=C1)O[C@H](Cc1ccccc1)[C@@H](Cc1ccccc1)O2` here?
**A.** inconclusive: 29.1 µM [falling, single point]

**Q.** With `O=[N+]([O-])c1cc(-c2ccccc2)cc([N+](=O)[O-])c1O` as the molecule, how does the Potency read?
**A.** inconclusive: 18.4 µM [falling, single point]

**Q.** With `Cc1c(/C=N/NC(=O)c2cccnc2)c2ccccc2n1Cc1ccccc1` as the molecule, how does the Potency read?
**A.** inconclusive: 11.6 µM [falling, partial curve, poor fit]

**Q.** For `COc1ccc(OC)c(S(=O)(=O)NCc2cccn2Cc2cccc(C)c2)c1`, which Potency is on record?
**A.** inconclusive: 3.26 µM [activator, partial curve, poor fit]

**Q.** Which Potency does the source give for `C/C(Cc1ccccc1)=N\NC(=O)CNC(=O)c1cccc(Cl)c1` here?
**A.** inconclusive: 32.6 µM [activator, partial curve, poor fit]

**Q.** For `CCCCCCC1C(C#N)=C(N)OC2=C1C(=O)CCC2` (stereo not given), which “activity change, negative = cytotoxicity” value is on record?
**A.** inactive: -7.28%

**Q.** Which Potency does the source give for `COc1ccccc1C(=O)NNC(=O)CCCN1C(=O)/C(=C/c2cccs2)SC1=S` here?
**A.** inconclusive: 29.1 µM [falling, partial curve, poor fit]

**Q.** With `CCN1CCN(c2cc3c(cc2F)c(=O)c(S(=O)(=O)c2ccccc2)cn3C)CC1` as the molecule, how does the Potency read?
**A.** inactive

**Q.** Which “activity change, negative = cytotoxicity” value does the source give for `O=C(NCC(=O)N1CCN(c2cccc(Cl)c2)CC1)c1ccc(Br)o1` here?
**A.** inactive: -10.6%

**Q.** For `N#C/C(=C(/O)COc1ccc(Cl)cc1)c1nc2ccccc2s1`, which Potency is on record?
**A.** active: 16.4 µM

**Q.** Which Potency does the source give for `CCOc1ccc(NC(=O)c2ccccc2NS(=O)(=O)c2ccc(F)cc2)c([N+](=O)[O-])c1` here?
**A.** inconclusive: 11.6 µM [falling, partial curve, poor fit]

**Q.** For `CCc1ccc2c(c1)C1(NN=C(c3ccc(C)cc3)S1)C(=O)N2` (stereo not given), which Potency is on record?
**A.** inconclusive: 18.4 µM [falling, partial curve, poor fit]

**Q.** Which “activity change, negative = cytotoxicity” value does the source give for `CCn1c2ccccc2c2cc(/C=N/n3c(-c4cc(C)[nH]n4)n[nH]c3=S)ccc21` here?
**A.** inactive: -9.04%

**Q.** Which Potency does the source give for `O=C(Nc1ccc(Cl)cc1N1CCOCC1)C1CC1` here?
**A.** inconclusive: 23.1 µM [activator, partial curve, poor fit]

**Q.** Which Potency does the source give for `COc1ccc(-c2n[nH]c(C(F)(F)F)c2-c2cc3ccccc3o2)c(O)c1` here?
**A.** active: 16.4 µM

**Q.** Which Potency does the source give for `CCOc1ccc(C2C([N+](=O)[O-])=C(C)N(C)C(=O)N2C)cc1OC` (stereo not given) here?
**A.** inconclusive: 18.4 µM [falling, single point]

**Q.** With `CCOc1ccccc1NC(=O)CN1C(=O)CC(c2ccc(OC)c(OC)c2)Sc2ccccc21` (stereo not given) as the molecule, how does the “activity change, negative = cytotoxicity” value read?
**A.** inactive: -5.89%

**Q.** With `Cc1ccc(S(=O)(=O)Nc2ccc(C(OC(=O)c3ccccc3[N+](=O)[O-])(C(F)(F)F)C(F)(F)F)cc2)cc1` as the molecule, how does the Potency read?
**A.** inconclusive: 14.6 µM [falling, partial curve, poor fit]

**Q.** Which “activity change, negative = cytotoxicity” value does the source give for `O=C(NCc1ccccc1)c1nn(-c2ccccc2)nc1CO` here?
**A.** inactive: -8.35%

**Q.** With `Cc1cc(C)cc(NS(=O)(=O)c2ccc3[nH]cc(C(=O)N(C)Cc4ccccc4)c(=O)c3c2)c1` as the molecule, how does the “activity change, negative = cytotoxicity” value read?
**A.** inactive: 9.17%

**Q.** For `COc1ccc(/C=C/c2nc(S(=O)(=O)c3ccccc3)c(N(C)C)o2)cc1`, which Potency is on record?
**A.** inconclusive: 32.6 µM [falling, partial curve, poor fit]

**Q.** Which Potency does the source give for `Cc1ccc(NC(=O)CSc2ccc(Br)cc2)cc1S(=O)(=O)N1CCOCC1` here?
**A.** inconclusive: 20.6 µM [falling, single point]
